Reference: PubChem BioAssay AID1508600 (Functional Genomics Laboratory (NCATS/FGL), 2020)
Out of some 53,000 sequences screened, about 3,700 (7%) were called active.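 Rule for the calls: active = gene knockdowns whose robust z-score for IL-1 alpha signal is at least 2 or at most -2, so actives lie on both sides; inactive = the rest.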 This is one part of the list.

Assay: Components of the Cytosolic LPS Sensing Pathway: Gene Identification via Genome-wide siRNA Screen;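 note: robust z of the log signal after scaling to non-targeting control siRNA wells of the plate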
Details: RAW264.7 macrophages, IL-1a HTRF, actives lie on both sides, screened at 100 nM (by protocol), cells primed 5 h with Pam3CSK4 first
In short: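 Knockdown: 100 nM siRNA, 48h, RAW264.7. Stimulation: Pam3CSK4 5 h, then LipidA via TransIT-TKO 24 h. Output: supernatant IL-1a HTRF, negative-control-normalized, log robust z-score; viability by CellTiter-Glo.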

Row | Sequence | z-score
1 | GGUUCAGCUGACGUAAAAATT against BC048562 | active: -2.1
2 | GGCCCAGUUUCUGAGGAUCTT against B4galt2 | inactive: -0.921
3 | AUGCAAGAGGAACGUAUCATT against Olfr1181 | inactive: -0.572
4 | GCAUUCGGCUGAGAAGAUGTT against Foxb2 | inactive: -1.74
5 | GGUCACCUUGUGAAGGCAGTT against A430005L14Rik | inactive: 0.171
6 | GCAACAUUAUUUCAUCGACTT against Kctd15 | inactive: 0.0368
7 | GGAGACAUGGUGAAGAUUUTT against Vav3 | inactive: -0.451
8 | GGACAGGAGGAUUACAACCTT against Rhoj | inactive: -0.954
9 | GGUUUGAACUUCAGCAACUTT against Adam15 | active: -2.17
10 | GGACCCUUUCUUUGAUAUGTT against Rpe | inactive: 1.01
11 | GUAACCUGAUUUCCAUUCUTT against Olfr178 | inactive: 0.913
12 | GGACACUAAGGUUCCCAACTT against Polr2j | inactive: -0.977
13 | GGUCUCCUUCUGCUUGAAGTT against Prx | inactive: 0.422
14 | CGUCCAGUAUACGCUGGUUTT against Cdc45 | active: 5.41
15 | GGGAUGUGUACCGUUACAUTT against 1700010I14Rik | inactive: 0.155
16 | GGAAAGUGGAUGUCACCAGTT against Sh3gl2 | inactive: -1.67
17 | GCUGAUAAACAUCAGCUACTT against Zdhhc23 | active: 4.01
18 | CCCUGAAACCUGAUCGGAATT against Nmral1 | inactive: -0.0303
19 | CCACUCCGAAACCAUCAGCTT against Asic2 | inactive: 1.09
20 | GGUCUUUGAUCUUCUACCGTT against Thbs4 | inactive: 0.156
21 | CCAUGAAACGGGCCAUUUCTT against Cldn3 | inactive: 0.238
22 | CCAUGUGGGUAAGUACAGCTT against 4932411N23Rik | inactive: 1.75

Row | Sequence | z-score
23 | GGCUUCCUGUUGGCAGUCATT against Olfr1413 | inactive: -1.24
24 | GGACCUCAGCGAAGACAAUTT against Cd300e | inactive: 0.114
25 | GGUAAAAAGCCUUAUCAGUTT against Zfp146 | inactive: -0.434
26 | GGACAUCCAGACUCUGAGATT against Dmac2 | inactive: -1.56
27 | GGUGAUUGUCUUGAUAUCCTT against Olfr1213 | inactive: -0.672
28 | GGAACAAAGAAGUAAUGUATT against Tbk1 | inactive: 1.21
29 | GCAUUCCAACGGAUUUAAUTT against Dag1 | active: 2.21
30 | GGAGAUGGACUCACUGAUGTT against Zscan20 | inactive: -1.32
31 | AAACCAUACUUGAAAGAAATT against Olfr943 | inactive: -0.36
32 | GGAACUGGAAAGGAAUCGCTT against Dpp6 | inactive: 1.14
33 | GGCCCUGCCUACUAUCUAUTT against B3gat3 | inactive: -1.4
34 | CCUGUACUCUAUAUUCUGUTT against Pld2 | inactive: 0.98
35 | GGGCAAGAGAGUAGAACUGTT against Ambra1 | inactive: 0.383
36 | CCCAACAUUUCCCUAUGUCTT against Reg3d | inactive: 0.832
37 | GGCAAUUUUGGACAAACAGTT against Amy1 | inactive: -1.42
38 | GCUCUCAGUGACCUUAGAATT against Dnaja1 | inactive: -0.302
39 | GGUUGUGCACAGCAGUGUUTT against Crct1 | inactive: -0.716
40 | CCGCUAACUUGAUUGACGATT against Tcte1 | inactive: -0.923
41 | GCCCAUUGAAGAAAAACCCTT against Arid4b | inactive: -0.698
42 | GGGUCAGAAUAUUUGCUUCTT against Olfr325 | inactive: 0.89
43 | GCCAGUUAACUUUAGGGAGTT against Ywhaz | inactive: 0.274
44 | GGCUGGAAGACAAAACUCCTT against Prickle3 | inactive: -0.782

A portion from further up:
Row | Sequence | z-score
22 | CCAUGUGGGUAAGUACAGCTT against 4932411N23Rik | inactive: 1.75
23 | GGCUUCCUGUUGGCAGUCATT against Olfr1413 | inactive: -1.24
24 | GGACCUCAGCGAAGACAAUTT against Cd300e | inactive: 0.114
25 | GGUAAAAAGCCUUAUCAGUTT against Zfp146 | inactive: -0.434
26 | GGACAUCCAGACUCUGAGATT against Dmac2 | inactive: -1.56
27 | GGUGAUUGUCUUGAUAUCCTT against Olfr1213 | inactive: -0.672
28 | GGAACAAAGAAGUAAUGUATT against Tbk1 | inactive: 1.21
29 | GCAUUCCAACGGAUUUAAUTT against Dag1 | active: 2.21
30 | GGAGAUGGACUCACUGAUGTT against Zscan20 | inactive: -1.32
31 | AAACCAUACUUGAAAGAAATT against Olfr943 | inactive: -0.36
32 | GGAACUGGAAAGGAAUCGCTT against Dpp6 | inactive: 1.14
33 | GGCCCUGCCUACUAUCUAUTT against B3gat3 | inactive: -1.4
34 | CCUGUACUCUAUAUUCUGUTT against Pld2 | inactive: 0.98
35 | GGGCAAGAGAGUAGAACUGTT against Ambra1 | inactive: 0.383
36 | CCCAACAUUUCCCUAUGUCTT against Reg3d | inactive: 0.832
37 | GGCAAUUUUGGACAAACAGTT against Amy1 | inactive: -1.42
38 | GCUCUCAGUGACCUUAGAATT against Dnaja1 | inactive: -0.302
39 | GGUUGUGCACAGCAGUGUUTT against Crct1 | inactive: -0.716
40 | CCGCUAACUUGAUUGACGATT against Tcte1 | inactive: -0.923
41 | GCCCAUUGAAGAAAAACCCTT against Arid4b | inactive: -0.698
42 | GGGUCAGAAUAUUUGCUUCTT against Olfr325 | inactive: 0.89
43 | GCCAGUUAACUUUAGGGAGTT against Ywhaz | inactive: 0.274

Additional entries follow.

Row | Sequence | z-score
45 | CGAUGCUGAUGUAUCAAAGTT against Phkb | inactive: 1.48
46 | CGAAUAUCAAAGGAUACUUTT against Tmem167 | inactive: 0.627
47 | GCUCAUUUAUUCAGGAAGCTT against Zbtb9 | inactive: 0.406
48 | GGAAGAGCUGCUGAAUUCATT against Mthfd2 | inactive: 0.052
49 | GGUGAACUCAGACUGAAUGTT against Mtres1 | inactive: -0.183
50 | GGAAAAUAAGCAUAGUGAUTT against Spesp1 | inactive: -0.35
51 | GCUUCUCAAGAGUGAAAUATT against Gcc2 | inactive: -1.56
52 | GGGAAGUCACUGAAGCCUGTT against Akr7a5 | inactive: 0.591
53 | GGUACGAGAACAACUGACUTT against Acot3 | inactive: 0.269
54 | GCUUGUUCACGGACAAGAATT against Yars2 | inactive: 0.0729
55 | GGAAAUGAAUCUGAUCCUGTT against Ces2a | inactive: 1.76
56 | CCUCGAUUAUAGCAAUACUTT against Slc16a14 | inactive: 1.36
57 | GGAGGACUCAGCACUCUUUTT against E130311K13Rik | inactive: -0.769
58 | GGGAAACUUGAACUUUGAUTT against Rsph1 | inactive: -1.54
59 | GCUCCUACGUGUCAGCCUUTT against Skor1 | inactive: -0.815
60 | CGAUGUGAGUUGCAGAUAUTT against Sp3os | inactive: 1.62
61 | GCUCAGCUGAAAAACUUGCTT against Ankrd53 | inactive: 0.819
62 | GGAAUUUCUGUGGUGGAGATT against Ddit4 | inactive: 0.186
63 | GGCCAAGUUCCUUUGCAUATT against Lacc1 | inactive: 0.274
64 | GGUGUAUGGUGGUGGUAGUTT against Pgap3 | inactive: 0.0533
65 | CCCGGAGAAGUUUUUAUCATT against Sfpq | inactive: 0.223
66 | GGGCAAUUUGGACUGUUUUTT against Jam3 | inactive: -0.973

Row | Sequence | z-score
67 | GGAAUCUGAUCUUAACAUCTT against Tenm1 | inactive: -1.49
68 | CGUUGAUCUACGUUAUAAATT against Car6 | inactive: 0.5
69 | GGAGAUCUGCCAGUGGAAATT against Pigx | inactive: -0.0187
70 | GGAAGUCAACCGAGUCUUCTT against Sp140 | inactive: 0.011
71 | GCACAAGCGUGGAACACAUTT against Dctn2 | inactive: 0.702
72 | GCAUUCUAUACUAUCGUCATT against Olfr314 | inactive: 0.78
73 | GGAUACAUAUAGGUAGAAUTT against Adgrg6 | inactive: -0.662
74 | GGCACCAUUCUGAAUCAGATT against Ddx50 | inactive: 0.78
75 | GGUGCAAUGCAAACUCUACTT against Cldn19 | inactive: 1.35
76 | GCAAGUACCAUGGACCAUGTT against Mbp | inactive: 0.607
77 | GGAUCAUGUUUGUUGACCCTT against Agr3 | inactive: 0.446
78 | GGUAAAAGUGGAACAAGAGTT against Irak3 | inactive: 0.0834
79 | GGUUUCCUUUAUCAAGAAGTT against Snrnp25 | inactive: -0.00388
80 | GCCAAGUGACGAUCAACUATT against Rpusd1 | inactive: 0.804
81 | CCUGACAGUACCAAAAAAUTT against Pax4 | inactive: -0.599
82 | GCAGUUAGUGUUUUUUGACTT against Nlrc4 | inactive: -0.00527
83 | CCUUGGUUGUAUCCAUUUUTT against Cnot10 | inactive: 1
84 | GCACCUUUGAAUGUGAAGUTT against Ccl2 | inactive: -0.408
85 | GGCUUCACUCUGAAGAAUUTT against Nab2 | inactive: 1.1
86 | CCCUCUAAGAAUUAAAAAGTT against Atmin | inactive: 0.707
87 | CCGGUUCAGAUUUGGCUAATT against Icam4 | inactive: 0.48
88 | GCAAGUAAAUAUGAGAACATT against Plxna4 | inactive: -1.17

Row | Sequence | z-score
89 | GCUGUCUCGUCAUUUAAGATT against Dym | inactive: -0.461
90 | GCCGUCUCUGUGUCACAAATT against Sirt1 | active: -2.19
91 | GUCAUCAUGAACCAAGAGATT against Olfr713 | active: -2.18
92 | GGAGUGUUUUACCUCUUUCTT against Nudt13 | inactive: 0.911
93 | GGCCAAACACGUAUCUUUGTT against Snta1 | inactive: -0.122
94 | GGAGACGAAGUGCUUAGGCTT against Gmip | inactive: 1.83
95 | GUAUGUUGACAUUUGCCUGTT against Olfr113 | active: -2.05
96 | GCGCAAGGAUAACUUUCAATT against Inpp5j | inactive: 0.61
97 | GCAGGGAGUGGUUUUAUGATT against Hoxb9 | inactive: 1.34
98 | CCGCGCCGUUGAUUCAUUUTT against Spata17 | inactive: 1.08
99 | GGCUCGACUUGGAGAAAAGTT against Atg13 | inactive: 0.0439
100 | GCCCGGAGAAUAUUAACUATT against Mllt11 | active: 2.21
101 | GGAUCUUCGUCAACAAGCATT against Zmynd10 | inactive: 0.472
102 | GCUCAUUUUAGGCAAAAGATT against Klhdc8a | inactive: 0.401
103 | GGUUUCCAUGGUAACGUGGTT against Tns1 | active: 2.24
104 | GCACAACAUAAGAAGGUGGTT against Klk14 | inactive: -1.34
105 | GGACACAACUCAUUUUCAGTT against Prg3 | inactive: -1.61
106 | GCUCACCAUCAAAUCAGUGTT against Ceacam14 | inactive: 1.15
107 | GGUGGCAGAGUUGUUAUUUTT against Ppp2r2d | inactive: -0.513
